Measured values reported in PMC4973907.
Results are given in words; binding and its absence hold for the method and conditions named. Binding seen in cells or lysates may run through a third protein. Some results given as binding are weak or reduced against the parent protein; the word gives no strength. Where a sequence is shown, tags or fusion partners need not be part of it.

Legend:
[1] = molecular target: T1, nRFP-PEX7 (UniProt Q9XF57); experiment: split reporter; mRFP1-based BiFC; pairs of Agrobacterium cultures with binary vectors co-infiltrated into Nicotiana benthamiana leaves, incubation for 3 days, confocal microscopy
T1 sequence: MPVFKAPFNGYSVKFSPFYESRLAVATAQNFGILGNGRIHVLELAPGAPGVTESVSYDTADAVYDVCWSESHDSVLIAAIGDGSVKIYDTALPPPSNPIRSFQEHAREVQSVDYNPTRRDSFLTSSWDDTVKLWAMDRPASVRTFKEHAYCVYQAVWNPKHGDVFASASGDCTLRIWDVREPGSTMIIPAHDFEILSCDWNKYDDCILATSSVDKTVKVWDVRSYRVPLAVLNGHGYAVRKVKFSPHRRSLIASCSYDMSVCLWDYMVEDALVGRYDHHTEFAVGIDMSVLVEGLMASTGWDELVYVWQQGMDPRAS

[2] = molecular target: T2, peroxisomal membrane protein 38 (PMP38), fused to a split mRFP1 fragment (UniProt O04200); experiment: as above
T2 sequence: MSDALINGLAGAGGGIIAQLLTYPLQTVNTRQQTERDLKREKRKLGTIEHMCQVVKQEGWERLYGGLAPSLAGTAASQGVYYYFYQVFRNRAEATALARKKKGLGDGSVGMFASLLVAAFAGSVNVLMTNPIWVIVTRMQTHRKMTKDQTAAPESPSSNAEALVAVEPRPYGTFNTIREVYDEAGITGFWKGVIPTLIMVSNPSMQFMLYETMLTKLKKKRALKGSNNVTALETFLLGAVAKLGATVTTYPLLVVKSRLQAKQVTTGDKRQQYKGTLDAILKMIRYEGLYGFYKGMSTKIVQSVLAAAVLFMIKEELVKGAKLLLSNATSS

[3] = molecular target: T3, AtSEC31A-nYFP (UniProt F4ICD9); experiment: split reporter; BiFC with split ECFP, EGFP, EYFP or mRFP1; two or four plasmids introduced into onion epidermal cells by particle bombardment; confocal microscopy and emission spectra (LSM510 META)
T3 sequence: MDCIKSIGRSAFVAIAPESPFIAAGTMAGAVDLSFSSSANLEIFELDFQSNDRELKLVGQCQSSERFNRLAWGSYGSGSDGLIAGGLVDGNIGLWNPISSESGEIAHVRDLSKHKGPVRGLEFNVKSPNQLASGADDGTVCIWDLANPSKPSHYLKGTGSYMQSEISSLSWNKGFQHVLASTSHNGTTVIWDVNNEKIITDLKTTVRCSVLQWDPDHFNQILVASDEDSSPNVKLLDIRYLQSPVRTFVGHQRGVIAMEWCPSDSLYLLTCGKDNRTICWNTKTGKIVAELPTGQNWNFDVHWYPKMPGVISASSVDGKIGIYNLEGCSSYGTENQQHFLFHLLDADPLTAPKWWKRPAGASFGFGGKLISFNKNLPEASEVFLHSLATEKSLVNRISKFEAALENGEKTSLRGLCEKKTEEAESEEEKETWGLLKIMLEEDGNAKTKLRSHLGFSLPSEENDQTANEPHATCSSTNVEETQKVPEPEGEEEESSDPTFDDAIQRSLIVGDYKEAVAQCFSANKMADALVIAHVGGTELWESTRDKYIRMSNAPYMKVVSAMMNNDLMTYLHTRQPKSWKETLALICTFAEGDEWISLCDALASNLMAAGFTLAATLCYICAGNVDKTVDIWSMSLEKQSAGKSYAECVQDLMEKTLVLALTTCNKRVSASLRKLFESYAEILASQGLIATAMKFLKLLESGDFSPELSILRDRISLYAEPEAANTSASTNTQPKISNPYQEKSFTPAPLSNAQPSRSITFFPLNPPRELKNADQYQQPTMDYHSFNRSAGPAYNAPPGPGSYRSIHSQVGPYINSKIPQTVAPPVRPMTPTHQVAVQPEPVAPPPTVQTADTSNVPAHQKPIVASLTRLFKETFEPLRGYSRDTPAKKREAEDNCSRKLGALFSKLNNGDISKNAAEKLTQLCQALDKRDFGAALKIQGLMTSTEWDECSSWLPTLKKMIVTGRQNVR

B1: peroxisomal membrane protein 38 (PMP38), fused to a split mRFP1 fragment (protein, UniProt O04200 1-331)
chain: MSDALINGLAGAGGGIIAQLLTYPLQTVNTRQQTERDLKREKRKLGTIEHMCQVVKQEGWERLYGGLAPSLAGTAASQGVYYYFYQVFRNRAEATALARKKKGLGDGSVGMFASLLVAAFAGSVNVLMTNPIWVIVTRMQTHRKMTKDQTAAPESPSSNAEALVAVEPRPYGTFNTIREVYDEAGITGFWKGVIPTLIMVSNPSMQFMLYETMLTKLKKKRALKGSNNVTALETFLLGAVAKLGATVTTYPLLVVKSRLQAKQVTTGDKRQQYKGTLDAILKMIRYEGLYGFYKGMSTKIVQSVLAAAVLFMIKEELVKGAKLLLSNATSS
binding [1]: no binding
binding [2]: binds

B2: AtSEC13A-cYFP (protein, UniProt Q9SRI1 1-302)
chain: MPPQKIETGHSDTIHDVVMDYYGKRVATASSDCTIKITGVSNSGGSQHLATLTGHRGPVWQVAWAHPKFGSLLASCSYDGQIILWKEGNQNQWTQAHVFTDHKVSVNSIAWAPHELGLSLACGASDGNISVFSARADGGWDTTKIDQAHPVGVTSVSWAPATEPGALVSSGMIDPVYKLASGGCDSTVKVWKFSNGSWKMDCFPALNKHTDWVRDVAWAPNLGLPKSTIASGSEDGKVIIWTIGKEGEQWEGTVLKDFKTPVWRVSWSLTGNLLAVSDGNNNVTVWKESVDGEWEQVTVVEP
binding [3]: binds

B3: cRFP-PEX12 (protein, UniProt Q9M841 1-393)
chain: MLFQVGGEGTRPTFFEMAAAQQLPASLRAALTYSLGVFALRRSFLHKILDYEDEFFAALMLILEGHSLRTTDGSFAESLYGLRRKSARLRLRKDSARKDSSEEVQHSGLEKRQRILSVVFLVVLPYFKSKLHAIYNKEREARLRESLWGAEDQGFDEADFFTGDDSIVSREPSGNEELSVRVQLATKIKKFIAVCYPWIHASSEGLSFTYQLLYLLDATGFYSLGLQALGIQVCRATGQELMDTSSRISKIRNHERERLRGPPWLKTVQGALLSCSYAVLDYAQTGLIAAVFIFKMMEWWYQSAEERLSAPTVYPPPPPPPAPKMAKEGIPLPPDRSLCALCLQKRANPSVVTVSGFVFCYSCVFKYVSKYKRCPVTLIPASVDQIRRLFQDT
binding [1]: no binding
binding [2]: no binding
